PubChem BioAssay AID1224826, NIAID – 2016

Screen: 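Regulators of Tlr4 signalling leading to Tnf-alpha expression in macrophages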 (primary screen)
Cells: RAW264.7 G9 macrophages from mouse bearing reporters for p65 (GFP) and the Tnf promoter (mCherry)
Reagents: siRNA pool against mouse genes, 100 nM
Time to read-out: 16 h of LPS stimulation, after 2 days of siRNA transfection
Treatment: bacterial lipopolysaccharide (Salmonella minnesota R595), 10 ng/ml
Detection: 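Imaged Tnf reporter mCherry in nuclei, minus background, normalised per plate to the median and expressed as robust z-scores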
Reading the numbers: Tnf reporter robust z-score: higher = stronger Tnf promoter reporter signal after LPS; Tnf reporter intensity: higher = stronger Tnf promoter reporter signal
Call rule: 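Called active when robust z-score is at most -1.3, matching the median of the Tlr4 knock-down control, or over 3; control wells and wells with under 50 cells never active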
Calls: active = Tnf reporter clearly lowered or raised; inactive = no clear change in Tnf reporter
Shown is one part, drawn at random, of about 17,000 deposited reagents. About 1,110 of them (6.6%) were called active. 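Active means lowered or raised reporter signal; replicate intensities are raw and not normalised per plate.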 Unmarked entries are inactive.

| Target gene | Tnf reporter robust z-score | fewer than 50 cells in well | Tnf reporter intensity, replicate 1 | Tnf reporter intensity, replicate 2 |
| --- | --- | --- | --- | --- |
| Trim34a (tripartite motif-containing 34A) | 0.01 | enough cells in well | 114 | 96.5 |
| Abcd2 (ATP-binding cassette, sub-family D member 2) | 0.98 | enough cells in well | 233 | 290 |
| Pxylp1 (2-phosphoxylose phosphatase 1) | -0.55 | enough cells in well | 96.4 | 132 |
| Cyp2c29 (cytochrome P450, family 2, subfamily c, polypeptide 29) | 1.72 | enough cells in well | 327 | 242 |
| Polm (polymerase (DNA directed), mu) | – | fewer than 50 cells per well; well left out of calls | 258 | 163 |
| Cmtm4 (CKLF-like MARVEL transmembrane domain containing 4) | 0.51 | enough cells in well | 186 | 215 |
| Scd4 (stearoyl-coenzyme A desaturase 4) | 1 | enough cells in well | 181 | 161 |
| Mcoln3 (mucolipin 3) | -0.59 | enough cells in well | 213 | 164 |
| Slc25a36 | 0.4 | enough cells in well | 121 | 195 |
| Lman1l (lectin, mannose-binding 1 like) | 1.87 | enough cells in well | 352 | 321 |
| Glra3 (glycine receptor, alpha 3 subunit) | 0.11 | enough cells in well | 266 | 178 |
| Hcrtr2 (hypocretin (orexin) receptor 2) | 0.11 | enough cells in well | 250 | 192 |
| Gmfb (glia maturation factor, beta) | 0.31 | enough cells in well | 199 | 190 |
| Rab24 (RAB24, member RAS oncogene family) | -1.45 (active) | enough cells in well | 70.5 | 61.9 |
| Srsf9 (serine and arginine-rich splicing factor 9) | 3.28 (active) | enough cells in well | 208 | 218 |
| Zfta (zinc finger translocation associated) | – | fewer than 50 cells per well; well left out of calls | 216 | 78 |
| Tcap (titin-cap) | 0.45 | enough cells in well | 285 | 143 |
| Adrb1 (adrenergic receptor, beta 1) | 0.2 | enough cells in well | 217 | 338 |
| Gml2 (glycosylphosphatidylinositol anchored molecule like 2) | -0.94 | enough cells in well | 188 | 98.5 |
| Slc40a1 | 1.06 | enough cells in well | 336 | 169 |
| Marveld1 (MARVEL (membrane-associating) domain containing 1) | 4.27 (active) | enough cells in well | 412 | 337 |
| Slc22a29 | -0.31 | enough cells in well | 200 | 119 |
| Nfat5 (nuclear factor of activated T cells 5) | -0.47 | enough cells in well | 165 | 220 |
| Hus1 (HUS1 checkpoint clamp component) | -1.13 | enough cells in well | 142 | 120 |
| Tusc3 (tumor suppressor candidate 3) | 0.3 | enough cells in well | 221 | 291 |
| Tspan18 (tetraspanin 18) | 0.47 | enough cells in well | 226 | 200 |
| Ptpa (protein phosphatase 2 protein activator) | 0.68 | enough cells in well | 282 | 254 |
| Gm11545 (predicted gene 11545) | -0.56 | enough cells in well | 118 | 147 |
| H1f2 (H1.2 linker histone, cluster member) | -0.47 | enough cells in well | 210 | 149 |
| Eya2 (EYA transcriptional coactivator and phosphatase 2) | 0.49 | enough cells in well | 273 | 262 |
| Picalm (phosphatidylinositol binding clathrin assembly protein) | 1.15 | enough cells in well | 335 | 272 |
| Cs (citrate synthase) | -0.45 | enough cells in well | 131 | 176 |

Part of the list above in another layout.
Rab24 (RAB24, member RAS oncogene family)
- Tnf reporter robust z-score: -1.45 (active)
- fewer than 50 cells in well: enough cells in well
- Tnf reporter intensity, replicate 1: 70.5
- Tnf reporter intensity, replicate 2: 61.9

Srsf9 (serine and arginine-rich splicing factor 9)
- Tnf reporter robust z-score: 3.28 (active)
- fewer than 50 cells in well: enough cells in well
- Tnf reporter intensity, replicate 1: 208
- Tnf reporter intensity, replicate 2: 218

Zfta (zinc finger translocation associated)
- fewer than 50 cells in well: fewer than 50 cells per well; well left out of calls
- Tnf reporter intensity, replicate 1: 216
- Tnf reporter intensity, replicate 2: 78

Tcap (titin-cap)
- Tnf reporter robust z-score: 0.45
- fewer than 50 cells in well: enough cells in well
- Tnf reporter intensity, replicate 1: 285
- Tnf reporter intensity, replicate 2: 143

Adrb1 (adrenergic receptor, beta 1)
- Tnf reporter robust z-score: 0.2
- fewer than 50 cells in well: enough cells in well
- Tnf reporter intensity, replicate 1: 217
- Tnf reporter intensity, replicate 2: 338

Gml2 (glycosylphosphatidylinositol anchored molecule like 2)
- Tnf reporter robust z-score: -0.94
- fewer than 50 cells in well: enough cells in well
- Tnf reporter intensity, replicate 1: 188
- Tnf reporter intensity, replicate 2: 98.5

The listing continues:
| Target gene | Tnf reporter robust z-score | fewer than 50 cells in well | Tnf reporter intensity, replicate 1 | Tnf reporter intensity, replicate 2 |
| --- | --- | --- | --- | --- |
| Tmem120a (transmembrane protein 120A) | – | fewer than 50 cells per well; well left out of calls | 70.9 | 55.1 |
| Eif2s3x | -1.67 (active) | enough cells in well | 86.9 | 31.9 |
| Ccdc126 (coiled-coil domain containing 126) | – | fewer than 50 cells per well; well left out of calls | 51.9 | 81 |
| Dynlt3 (dynein light chain Tctex-type 3) | -1.02 | enough cells in well | 78.8 | 75.8 |
| Plpp2 (phospholipid phosphatase 2) | -1.04 | enough cells in well | 153 | 131 |
| Cox6a2 (cytochrome c oxidase subunit 6A2) | -0.56 | enough cells in well | 103 | 192 |
| Pcsk7 (proprotein convertase subtilisin/kexin type 7) | 0.3 | enough cells in well | 280 | 190 |
| Il1a (interleukin 1 alpha) | 1.27 | enough cells in well | 312 | 237 |
| Or8h10 (olfactory receptor family 8 subfamily H member 10) | -0.89 | enough cells in well | 131 | 106 |
| Tex19.2 (testis expressed gene 19.2) | 1.78 | enough cells in well | 327 | 62 |
| Sptlc3 (serine palmitoyltransferase, long chain base subunit 3) | 1.16 | enough cells in well | 159 | 222 |
| Dek (DEK proto-oncogene) | 0.32 | enough cells in well | 247 | 239 |
| Gpr65 (G-protein coupled receptor 65) | -0.2 | enough cells in well | 189 | 294 |
| Or6k2 (olfactory receptor family 6 subfamily K member 2) | 0.49 | enough cells in well | 126 | 123 |
| Cmtr1 (cap methyltransferase 1) | -0.9 | enough cells in well | 199 | 67 |
| Myl10 (myosin, light chain 10, regulatory) | -1.25 | enough cells in well | 141 | 55.8 |
| Tfb2m (transcription factor B2, mitochondrial) | -0.57 | enough cells in well | 218 | 89.2 |
| Prl3d2 (prolactin family 3, subfamily d, member 2) | -0.76 | enough cells in well | 72.3 | 91.4 |
| Polh (polymerase (DNA directed), eta (RAD 30 related)) | -0.85 | enough cells in well | 163 | 147 |
| A430033K04Rik (RIKEN cDNA A430033K04 gene) | -0.08 | enough cells in well | 151 | 166 |
| Srsf11 (serine and arginine-rich splicing factor 11) | – | fewer than 50 cells per well; well left out of calls | 114 | 164 |
| Or1n2 (olfactory receptor family 1 subfamily N member 2) | -0.56 | enough cells in well | 137 | 104 |
| Acy3 (aminoacylase 3) | 0.96 | enough cells in well | 340 | 104 |
| Slc25a12 | -0.1 | enough cells in well | 92 | 104 |
| Pxmp4 (peroxisomal membrane protein 4) | -0.03 | enough cells in well | 141 | 115 |
| Fbxo22 (F-box protein 22) | 0.59 | enough cells in well | 305 | 243 |
